Test results from the supplement of paper PMC12819154, “High-throughput peptide-centric local stability assay extends protein–ligand identification to membrane proteins, tissues and bacteria” (Nature Structural & Molecular Biology, 2025).
The list shows a part of the results. Most entries show no effect beyond the scatter of the controls.

The chains behind the UniProt entries cited, without tags or fusion partners. Where a name states a change or a piece, a line headed by the entry shows the natural chain unless it says otherwise.
UniProt Q99504: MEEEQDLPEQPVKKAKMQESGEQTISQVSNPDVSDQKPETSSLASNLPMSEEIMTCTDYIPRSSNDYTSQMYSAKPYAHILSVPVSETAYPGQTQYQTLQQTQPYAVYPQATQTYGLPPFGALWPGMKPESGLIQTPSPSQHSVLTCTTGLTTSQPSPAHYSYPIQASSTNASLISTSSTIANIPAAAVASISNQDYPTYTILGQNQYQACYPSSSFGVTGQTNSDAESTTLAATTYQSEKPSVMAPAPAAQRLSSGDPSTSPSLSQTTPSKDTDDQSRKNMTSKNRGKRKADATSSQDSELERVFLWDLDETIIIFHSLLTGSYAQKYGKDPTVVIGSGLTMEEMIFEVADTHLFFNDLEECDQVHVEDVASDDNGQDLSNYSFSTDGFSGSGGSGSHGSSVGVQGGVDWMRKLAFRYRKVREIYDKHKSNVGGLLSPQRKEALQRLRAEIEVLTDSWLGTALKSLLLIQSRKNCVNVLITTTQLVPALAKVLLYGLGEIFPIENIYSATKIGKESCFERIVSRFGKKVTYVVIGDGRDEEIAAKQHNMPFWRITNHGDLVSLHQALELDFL
UniProt Q9BQE5: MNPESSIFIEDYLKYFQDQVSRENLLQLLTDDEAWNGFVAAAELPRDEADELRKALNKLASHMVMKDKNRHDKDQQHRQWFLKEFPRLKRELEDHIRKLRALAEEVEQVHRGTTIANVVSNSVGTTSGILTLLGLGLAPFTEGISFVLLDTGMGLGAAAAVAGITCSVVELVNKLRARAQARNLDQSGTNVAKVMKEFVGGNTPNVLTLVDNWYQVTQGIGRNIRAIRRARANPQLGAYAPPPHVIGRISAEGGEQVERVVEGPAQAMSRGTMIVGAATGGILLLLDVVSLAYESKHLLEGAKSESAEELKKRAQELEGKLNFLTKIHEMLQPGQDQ
UniProt Q9BQA5: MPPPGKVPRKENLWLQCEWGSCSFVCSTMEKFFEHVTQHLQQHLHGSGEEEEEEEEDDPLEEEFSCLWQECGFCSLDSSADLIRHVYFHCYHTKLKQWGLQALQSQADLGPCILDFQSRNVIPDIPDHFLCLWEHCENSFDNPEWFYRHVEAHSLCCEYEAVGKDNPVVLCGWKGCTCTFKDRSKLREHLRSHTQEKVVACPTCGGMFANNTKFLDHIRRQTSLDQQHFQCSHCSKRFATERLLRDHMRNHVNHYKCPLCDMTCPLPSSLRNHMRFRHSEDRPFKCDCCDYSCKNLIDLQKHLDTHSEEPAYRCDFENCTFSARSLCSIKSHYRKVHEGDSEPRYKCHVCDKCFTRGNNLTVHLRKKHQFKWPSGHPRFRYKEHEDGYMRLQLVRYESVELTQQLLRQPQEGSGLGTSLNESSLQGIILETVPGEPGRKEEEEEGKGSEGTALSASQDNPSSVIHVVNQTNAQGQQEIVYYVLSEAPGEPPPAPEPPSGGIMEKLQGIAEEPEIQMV
UniProt Q9BRX9: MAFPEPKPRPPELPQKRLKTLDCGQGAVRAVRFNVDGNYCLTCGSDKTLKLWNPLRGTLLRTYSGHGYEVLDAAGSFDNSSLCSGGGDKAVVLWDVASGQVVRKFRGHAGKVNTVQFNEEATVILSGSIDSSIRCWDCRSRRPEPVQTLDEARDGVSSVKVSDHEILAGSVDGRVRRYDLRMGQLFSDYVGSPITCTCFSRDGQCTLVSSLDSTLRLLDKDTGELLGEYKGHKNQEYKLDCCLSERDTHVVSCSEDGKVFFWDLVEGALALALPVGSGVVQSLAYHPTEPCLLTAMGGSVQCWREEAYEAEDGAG
UniProt Q99704: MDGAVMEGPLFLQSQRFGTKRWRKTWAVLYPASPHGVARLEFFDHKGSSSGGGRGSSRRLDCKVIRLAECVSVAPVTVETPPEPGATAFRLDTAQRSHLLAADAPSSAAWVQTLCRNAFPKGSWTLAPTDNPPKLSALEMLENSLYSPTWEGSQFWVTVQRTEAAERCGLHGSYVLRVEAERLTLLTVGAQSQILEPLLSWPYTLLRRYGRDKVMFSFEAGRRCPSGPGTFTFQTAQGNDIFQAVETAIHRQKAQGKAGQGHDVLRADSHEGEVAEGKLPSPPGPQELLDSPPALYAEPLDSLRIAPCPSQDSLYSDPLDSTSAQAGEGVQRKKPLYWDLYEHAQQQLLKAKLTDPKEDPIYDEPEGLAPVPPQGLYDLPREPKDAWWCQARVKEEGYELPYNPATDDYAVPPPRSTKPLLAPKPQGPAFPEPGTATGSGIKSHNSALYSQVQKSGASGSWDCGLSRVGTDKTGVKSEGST
UniProt Q9BQA1, whole entry: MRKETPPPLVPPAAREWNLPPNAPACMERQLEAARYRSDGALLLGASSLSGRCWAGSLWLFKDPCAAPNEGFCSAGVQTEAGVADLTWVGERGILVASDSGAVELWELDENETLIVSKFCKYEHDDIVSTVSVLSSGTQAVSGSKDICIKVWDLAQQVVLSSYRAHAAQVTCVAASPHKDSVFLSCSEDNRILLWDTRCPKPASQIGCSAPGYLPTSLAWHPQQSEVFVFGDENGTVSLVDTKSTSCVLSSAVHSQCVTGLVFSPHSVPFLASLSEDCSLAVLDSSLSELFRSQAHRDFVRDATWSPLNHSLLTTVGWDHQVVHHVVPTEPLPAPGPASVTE
UniProt Q96SB8: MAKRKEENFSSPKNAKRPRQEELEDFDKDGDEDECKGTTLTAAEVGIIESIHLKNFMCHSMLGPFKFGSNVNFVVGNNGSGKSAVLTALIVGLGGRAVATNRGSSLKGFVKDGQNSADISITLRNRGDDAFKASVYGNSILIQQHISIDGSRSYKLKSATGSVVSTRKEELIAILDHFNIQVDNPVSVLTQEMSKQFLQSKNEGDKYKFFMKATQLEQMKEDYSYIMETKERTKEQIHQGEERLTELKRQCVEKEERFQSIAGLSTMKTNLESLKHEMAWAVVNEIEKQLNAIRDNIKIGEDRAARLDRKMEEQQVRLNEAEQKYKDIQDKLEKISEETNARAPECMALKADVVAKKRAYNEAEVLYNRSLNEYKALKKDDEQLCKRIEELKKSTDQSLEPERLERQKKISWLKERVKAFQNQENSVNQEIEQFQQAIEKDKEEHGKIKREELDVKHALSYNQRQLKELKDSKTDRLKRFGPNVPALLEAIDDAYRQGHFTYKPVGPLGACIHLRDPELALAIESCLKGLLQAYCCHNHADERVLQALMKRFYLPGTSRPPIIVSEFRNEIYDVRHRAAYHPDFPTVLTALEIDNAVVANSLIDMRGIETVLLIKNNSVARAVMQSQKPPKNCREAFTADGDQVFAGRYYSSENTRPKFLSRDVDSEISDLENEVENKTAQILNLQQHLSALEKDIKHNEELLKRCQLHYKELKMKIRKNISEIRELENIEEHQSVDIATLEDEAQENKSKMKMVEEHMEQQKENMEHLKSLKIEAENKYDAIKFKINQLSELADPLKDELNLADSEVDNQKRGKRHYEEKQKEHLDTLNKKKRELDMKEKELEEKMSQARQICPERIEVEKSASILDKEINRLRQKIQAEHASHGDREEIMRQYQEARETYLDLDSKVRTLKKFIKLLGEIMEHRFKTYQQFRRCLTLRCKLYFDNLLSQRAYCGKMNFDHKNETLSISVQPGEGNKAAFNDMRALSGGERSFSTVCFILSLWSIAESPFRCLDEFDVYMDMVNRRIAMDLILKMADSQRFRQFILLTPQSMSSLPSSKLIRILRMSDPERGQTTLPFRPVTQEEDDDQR
UniProt Q99418: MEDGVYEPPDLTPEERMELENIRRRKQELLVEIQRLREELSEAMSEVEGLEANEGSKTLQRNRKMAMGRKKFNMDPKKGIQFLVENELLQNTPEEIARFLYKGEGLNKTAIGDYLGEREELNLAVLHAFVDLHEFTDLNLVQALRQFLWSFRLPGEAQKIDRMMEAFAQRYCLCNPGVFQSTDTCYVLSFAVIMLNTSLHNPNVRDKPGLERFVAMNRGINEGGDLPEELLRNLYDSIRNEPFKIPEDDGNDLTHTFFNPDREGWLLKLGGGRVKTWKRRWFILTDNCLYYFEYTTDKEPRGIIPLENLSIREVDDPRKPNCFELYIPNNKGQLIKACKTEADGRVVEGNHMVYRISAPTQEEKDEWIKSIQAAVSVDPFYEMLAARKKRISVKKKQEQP
UniProt Q9BQ15: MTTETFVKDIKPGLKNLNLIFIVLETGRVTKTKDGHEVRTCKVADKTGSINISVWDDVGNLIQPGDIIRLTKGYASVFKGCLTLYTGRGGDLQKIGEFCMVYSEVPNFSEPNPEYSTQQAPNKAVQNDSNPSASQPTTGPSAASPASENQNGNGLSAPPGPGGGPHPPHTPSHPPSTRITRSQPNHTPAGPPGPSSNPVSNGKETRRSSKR
UniProt Q9BQ04: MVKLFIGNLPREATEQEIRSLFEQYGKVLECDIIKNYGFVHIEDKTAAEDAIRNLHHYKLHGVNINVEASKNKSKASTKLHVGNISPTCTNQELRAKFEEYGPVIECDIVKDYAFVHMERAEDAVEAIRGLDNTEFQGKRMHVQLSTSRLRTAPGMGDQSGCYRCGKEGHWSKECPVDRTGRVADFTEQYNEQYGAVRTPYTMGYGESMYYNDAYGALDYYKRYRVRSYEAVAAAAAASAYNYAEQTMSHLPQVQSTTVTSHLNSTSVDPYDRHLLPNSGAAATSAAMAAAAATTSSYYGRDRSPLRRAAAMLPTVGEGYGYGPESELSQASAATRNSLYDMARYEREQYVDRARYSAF
UniProt Q9BSJ2, whole entry: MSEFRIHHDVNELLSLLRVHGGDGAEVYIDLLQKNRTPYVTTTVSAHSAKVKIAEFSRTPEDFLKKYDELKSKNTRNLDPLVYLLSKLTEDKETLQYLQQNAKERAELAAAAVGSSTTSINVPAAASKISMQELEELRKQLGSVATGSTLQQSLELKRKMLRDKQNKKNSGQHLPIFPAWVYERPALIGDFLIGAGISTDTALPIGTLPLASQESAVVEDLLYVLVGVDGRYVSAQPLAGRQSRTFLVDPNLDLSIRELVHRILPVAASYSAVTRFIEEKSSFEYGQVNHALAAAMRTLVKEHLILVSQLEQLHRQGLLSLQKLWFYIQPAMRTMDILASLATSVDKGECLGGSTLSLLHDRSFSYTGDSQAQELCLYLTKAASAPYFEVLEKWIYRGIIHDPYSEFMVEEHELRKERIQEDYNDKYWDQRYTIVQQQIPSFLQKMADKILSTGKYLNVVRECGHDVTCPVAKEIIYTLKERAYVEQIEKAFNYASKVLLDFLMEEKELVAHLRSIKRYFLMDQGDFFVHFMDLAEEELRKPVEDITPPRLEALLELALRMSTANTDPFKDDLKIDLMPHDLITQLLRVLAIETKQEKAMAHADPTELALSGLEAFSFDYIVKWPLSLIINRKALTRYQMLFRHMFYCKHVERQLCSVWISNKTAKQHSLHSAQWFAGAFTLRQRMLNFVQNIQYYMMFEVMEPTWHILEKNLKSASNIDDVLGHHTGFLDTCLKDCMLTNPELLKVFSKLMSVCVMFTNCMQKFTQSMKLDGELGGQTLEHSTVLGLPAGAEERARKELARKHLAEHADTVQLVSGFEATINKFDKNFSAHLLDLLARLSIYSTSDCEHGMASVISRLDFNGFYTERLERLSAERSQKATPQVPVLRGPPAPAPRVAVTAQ
UniProt Q99611, whole entry: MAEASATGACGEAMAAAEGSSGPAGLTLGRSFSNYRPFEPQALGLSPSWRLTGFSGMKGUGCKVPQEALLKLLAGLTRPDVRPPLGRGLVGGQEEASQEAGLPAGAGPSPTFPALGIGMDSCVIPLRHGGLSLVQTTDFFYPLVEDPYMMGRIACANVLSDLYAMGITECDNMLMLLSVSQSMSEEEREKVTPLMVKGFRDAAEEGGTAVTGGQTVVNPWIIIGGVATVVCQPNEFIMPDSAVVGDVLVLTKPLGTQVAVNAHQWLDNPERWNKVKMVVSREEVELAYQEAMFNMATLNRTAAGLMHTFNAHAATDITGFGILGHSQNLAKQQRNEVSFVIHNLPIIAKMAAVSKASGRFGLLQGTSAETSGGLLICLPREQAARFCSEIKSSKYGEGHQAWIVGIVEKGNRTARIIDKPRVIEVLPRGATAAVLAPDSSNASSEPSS

compound: Cc1nc(Nc2ncc(C(=O)Nc3c(C)cccc3Cl)s2)cc(N2CCN(CCO)CC2)n1 [dasatinib]; test: log2 fold change of tryptic peptide abundance, ligand vs vehicle (limited proteolysis) (log2 ratio); higher = more trypsin-susceptible (destabilized); conditions: ligand concentration: 5 uM; sample: K562 cleared lysate

| Target | log2 fold change |
| --- | --- |
| EYA3 (peptide sequence: KVTYVVIGDGRDEEIAAK, peptide start residue: 529) (UniProt Q99504) | 0.148 |
| ATXN2 (peptide sequence: GISPVVSEHRK, peptide start residue: 782) (UniProt Q99700) | -0.123 |
| HNRNPAB (peptide sequence: FGEVVDCTIK, peptide start residue: 92) (UniProt Q99729) | 0.0804 |
| UniProt Q9BQE5 (peptide sequence: AQELEGKLNFLTK, peptide start residue: 314) | 0.394 |
| SMAD5 (peptide sequence: IPSSCSLK, peptide start residue: 374) (UniProt Q99717) | -0.211 |
| PNKP (peptide sequence: RVAIDNTNPDAASR, peptide start residue: 418) (UniProt Q96T60) | 0.431 |
| UniProt Q99501 (peptide sequence: RPSGPAELGTWHALHSVTPR, peptide start residue: 655) | 0.326 |
| UniProt Q9BTK6 (peptide sequence: LEEQILR, peptide start residue: 214) | -0.127 |
| HINFP (peptide sequence: YKEHEDGYMR, peptide start residue: 381) (UniProt Q9BQA5) | 0.0815 |
| FIZ1 (peptide sequence: LLLGPAGGGVPK, peptide start residue: 293) (UniProt Q96SL8) | -0.515 |
| UniProt Q99502 (peptide sequence: IGKESCFER, peptide start residue: 513) | 0.193 |
| UniProt Q9BRX9 (peptide sequence: VSDHEILAGSVDGR, peptide start residue: 161) | -0.0363 |
| POP1 (peptide sequence: DDGENAKPIK, peptide start residue: 388) (UniProt Q99575) | -0.43 |
| DOK1 (peptide sequence: VGTDKTGVK, peptide start residue: 468) (UniProt Q99704) | -0.226 |
| WDR77 (peptide sequence: ILLWDTR, peptide start residue: 192) (UniProt Q9BQA1) | -0.246 |
| SMC6 (peptide sequence: QKIQAEHASHGDREEIMR, peptide start residue: 876) (UniProt Q96SB8) | 0.636 |
| CYTH2 (peptide sequence: ISAPTQEEKDEWIK, peptide start residue: 356) (UniProt Q99418) | -0.122 |
| NABP2 (peptide sequence: GCLTLYTGR, peptide start residue: 80) (UniProt Q9BQ15) | -0.217 |
| RBM4B (peptide sequence: LHVGNISPTCTNQELR, peptide start residue: 80) (UniProt Q9BQ04) | -0.0101 |

| Target | log2 fold change |
| --- | --- |
| SPEN (peptide sequence: VLPYSNITVR, peptide start residue: 1294) (UniProt Q96T58) | -0.197 |
| PIMREG (peptide sequence: IQESCQSGTK, peptide start residue: 100) (UniProt Q9BSJ6) | -0.572 |
| CHCHD5 (peptide sequence: MSIAQCTSSHPIIR, peptide start residue: 39) (UniProt Q9BSY4) | -0.0909 |
| UniProt Q99973 (peptide sequence: NQCLATLPDLK, peptide start residue: 49) | -0.905 |
| DUSP9 (peptide sequence: LHLSLNDAYDLVKR, peptide start residue: 309) (UniProt Q99956) | 0.524 |
| TUBGCP2 (peptide sequence: ATPQVPVLR, peptide start residue: 880) (UniProt Q9BSJ2) | -0.0962 |
| SEPHS2 (peptide sequence: LLAGLTRPDVRPPLGR, peptide start residue: 72) (UniProt Q99611) | -0.0645 |
| FUCA2 (peptide sequence: FDPTWESLDAR, peptide start residue: 34) (UniProt Q9BTY2) | -0.16 |
| LBHD1 (peptide sequence: LPNPLWDR, peptide start residue: 30) (UniProt Q9BQE6) | -0.304 |
| PELO (peptide sequence: MGAYHTIELEPNR, peptide start residue: 96) (UniProt Q9BRX2) | -0.0944 |
| PRPF18 (peptide sequence: KIEILTPEVNK, peptide start residue: 111) (UniProt Q99633) | -0.581 |
| MTA3 (peptide sequence: QYESLPATHIR, peptide start residue: 96) (UniProt Q9BTC8) | -0.169 |
| RBBP8 (peptide sequence: TEYGKDSNTDKHLEPLK, peptide start residue: 422) (UniProt Q99708) | 0.978 |
| UniProt Q9BUG6 (peptide sequence: ELQILPR, peptide start residue: 182) | -0.359 |
| UniProt Q99541 (peptide sequence: DQYPYLK, peptide start residue: 38) | -0.246 |
| WRNIP1 (peptide sequence: AGLNGLQLAVLAR, peptide start residue: 442) (UniProt Q96S55) | 0.0977 |
| RNF5 (peptide sequence: AAAEEEDGGPEGPNRER, peptide start residue: 2) (UniProt Q99942) | -0.421 |
| UniProt Q9BQC6 (peptide sequence: FIADQLDHLNVTK, peptide start residue: 87) | -0.731 |

Shown comma-delimited: part of the list above
Target,log2 fold change
"PRPF18 (peptide sequence: KIEILTPEVNK, peptide start residue: 111) (UniProt Q99633)",-0.581
"RNF5 (peptide sequence: AAAEEEDGGPEGPNRER, peptide start residue: 2) (UniProt Q99942)",-0.421
